Test results reported in the supplement of paper PMC6078165.
The reference is the same well before dosing, and untreated signal decays as well.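 Labels refer to human fibroblasts, largely primary: uterine (C12385, HUF), lung (H6013), bone (Hs27A), adrenal (HADF), skin (WS1), plus mammary HMF and breast cancer-associated Hs343T. Cancer lines are basal-like or mesenchymal-like triple-negative breast cancer. The paper counts as hits responses shifting over 3x the replicate standard deviation. The tissue of the other fibroblasts is not given here.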

Tested on: BT20
Assay: relative JC-1 red fluorescence (viability) vs pre-drug, coculture with fibroblast (fraction); higher = more viable cancer cells
Procedure: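 JC-1 labelled TNBC cells cocultured 1:1 (1,500 cells each) with CellTrace Violet stained primary or stromal fibroblasts in 384-well plates in FluoroBrite medium, treated with one of 42 anticancer drugs at 0.1, 1, 10 or 100 uM. JC-1 red fluorescence (mitochondrial integrity in cancer cells only) was read by plate reader every 8 h for 72 h. Values are normalised to each well's pre-drug value. The stock of one drug was tenfold lower, so its dose labels may be too high.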

CO[C@H]1C[C@@H]2CC[C@@H](C)[C@@](O)(O2)C(=O)C(=O)N2CCCC[C@H]2C(=O)O[C@H]([C@H](C)C[C@@H]2CC[C@@H](O)[C@H](OC)C2)CC(=O)[C@H](C)/C=C(\C)[C@@H](O)[C@@H](OC)C(=O)[C@H](C)C[C@H](C)/C=C/C=C/C=C/1C [Rapamycin]
relative JC-1 red fluorescence
Settings	8 h	16 h	24 h	32 h	40 h	48 h	56 h	64 h	72 h
10 µM, coculture fibroblast: C12385	0.826	0.81	0.84	0.841	0.804	0.787	0.755	0.722	0.705
10 µM, coculture fibroblast: H6013	0.853	0.857	0.924	0.854	0.88	0.859	0.822	0.881	0.779
10 µM, coculture fibroblast: H6019	0.7783	0.691	0.677	0.6581	0.645	0.651	0.656	0.661	0.674
10 µM, coculture fibroblast: H6076	0.844	0.961	0.925	0.909	0.888	0.848	0.824	0.805	0.765
10 µM, coculture fibroblast: H6231	0.861	0.802	0.891	0.866	0.972	0.925	0.895	0.84	0.801
10 µM, coculture fibroblast: HADF	0.9156	0.861	0.834	0.824	0.8892	0.85	0.748	0.872	0.971
10 µM, coculture fibroblast: HCFa	0.927	0.895	0.783	0.75	0.807	0.821	0.839	0.833	0.811
10 µM, coculture fibroblast: HCPF	0.876	0.9797	0.9471	0.906	0.856	0.812	0.759	0.734	0.677
10 µM, coculture fibroblast: HHSteC	0.886	0.878	0.908	0.869	0.848	0.824	0.797	0.779	0.758
10 µM, coculture fibroblast: HMF	0.893	0.934	0.889	0.859	0.8274	0.774	0.737	0.696	0.66
10 µM, coculture fibroblast: HPFa	0.93	0.783	0.839	0.758	0.764	0.757	0.765	0.861	0.805
10 µM, coculture fibroblast: HUF	0.881	0.869	0.893	0.854	0.818	0.775	0.744	0.7202	0.706
10 µM, coculture fibroblast: Hs5	0.795	0.922	0.962	0.942	0.897	0.864	0.812	0.784	0.761
10 µM, coculture fibroblast: Hs27A	0.905	0.904	0.876	0.829	0.959	0.838	0.945	0.88	0.892
10 µM, coculture fibroblast: Hs343T	0.941	0.954	0.902	0.86322	0.854	0.815	0.745	0.74	0.694
10 µM, coculture fibroblast: WS1	0.78938	0.7194	0.721	0.704	0.68	0.665	0.648	0.624	0.606
100 µM, coculture fibroblast: C12385	0.831	0.852	0.836	0.907	0.892	0.829	0.742	0.659	0.564
100 µM, coculture fibroblast: H6013	0.958	0.678	0.561	0.453	0.362	0.333	0.374	0.406	0.426
100 µM, coculture fibroblast: H6019	0.924	0.812	0.856	0.72	0.752	0.68	0.768	0.736	0.675
100 µM, coculture fibroblast: H6076	0.96	0.749	0.635	0.599	0.559	0.489	0.486	0.483	0.476
100 µM, coculture fibroblast: H6231	0.808	0.876	0.854	0.905	0.901	0.857	0.738	0.638	0.551
100 µM, coculture fibroblast: HADF	0.801	0.912	0.765	0.638	0.545	0.502	0.549	0.611	0.635
100 µM, coculture fibroblast: HCFa	0.934	0.7577	0.723	0.627	0.492	0.389	0.406	0.428	0.463
100 µM, coculture fibroblast: HCPF	0.869	0.766	0.751	0.682	0.716	0.616	0.599	0.6	0.564
100 µM, coculture fibroblast: HHSteC	0.892	0.703	0.579	0.444	0.34	0.295	0.321	0.35	0.378
100 µM, coculture fibroblast: HMF	0.852	0.765	0.615	0.551	0.506	0.432	0.422	0.379	0.325
100 µM, coculture fibroblast: HPFa	0.954	0.906	0.762	0.646	0.57	0.484	0.517	0.562	0.598
100 µM, coculture fibroblast: HUF	0.793	0.576	0.507	0.386	0.329	0.341	0.375	0.39	0.399
100 µM, coculture fibroblast: Hs5	0.948	0.706	0.618	0.522	0.445	0.38	0.344	0.336	0.362
100 µM, coculture fibroblast: Hs27A	0.784	0.851	0.933	0.89	0.828	0.684	0.681	0.753	0.781
100 µM, coculture fibroblast: Hs343T	0.943	0.698	0.499	0.4	0.336	0.259	0.239	0.22	0.241
100 µM, coculture fibroblast: WS1	0.924	0.843	0.815	0.755	0.7124	0.837	0.712	0.627	0.519
